Data from patent US9233109B2, “Compositions, methods of use, and methods of treatment” (UNIVERSITY OF FLORIDA RESEARCH FOUNDATION, INC., priority 2010, dated 2016).
At least one compound was matched to its structure with a doubt left.

Protein sequences, listed by entry. Tags and fused reporters are not part of them. Residues count along the entry.
UniProt P36544, 23-502: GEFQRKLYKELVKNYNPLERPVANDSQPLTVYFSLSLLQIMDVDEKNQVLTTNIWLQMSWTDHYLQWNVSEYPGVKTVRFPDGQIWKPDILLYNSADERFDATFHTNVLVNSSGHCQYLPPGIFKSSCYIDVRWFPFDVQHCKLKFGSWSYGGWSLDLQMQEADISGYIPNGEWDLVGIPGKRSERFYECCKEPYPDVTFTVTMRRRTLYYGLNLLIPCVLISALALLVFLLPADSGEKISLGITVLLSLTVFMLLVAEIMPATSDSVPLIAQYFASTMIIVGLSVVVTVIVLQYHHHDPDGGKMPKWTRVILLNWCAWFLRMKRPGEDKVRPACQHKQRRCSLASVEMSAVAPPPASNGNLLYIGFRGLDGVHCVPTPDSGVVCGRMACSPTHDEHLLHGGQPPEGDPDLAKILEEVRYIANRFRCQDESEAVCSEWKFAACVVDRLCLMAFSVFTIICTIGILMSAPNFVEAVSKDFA

Biological target: T1, α7 nAChR (Homo sapiens, UniProt P36544)
T1 construct: expressed in transfected cells; host or cells: Xenopus laevis oocytes injected with cRNA
Test: Acute co-application of ACh and S 24795, model fit of net charge responses in oocytes
Type: cell-based
From the text: FIG. 2.1 illustrates a model applied to the activation of nAChR by simultaneous co-applications of the full agonist “a” and a partial agonist “p”. […] The IMax of the full agonist is assigned a value of 1. The first and second terms of the equation represent the activation produced by the full agonist and partial agonists, respectively, scaled by their potencies and weighted by receptor availability. The third term allows noncompetitive effects of the partial agonist. If such noncompetitive activity is inhibitory, then ni is assigned a negative value.
Acute responses to agonist/partial agonist applications were fit with a general non-linear regression model, implemented as an option in a Windows data analyses and graphical presentation program (CAS Data Forge). The terms na, np, ni, Rmaxp, Inmaxp, EC50a, EC50p, and IC50p were given starting estimates based on the data obtained with the drugs applied separately. Tolerance factor (typically 1×10^−5) range limits for each parameter were specified. […] A predicted matrix was then calculated for each cell of the matrix, based on the a and p concentrations, the set of parameters listed above, and the governing equation. The residuals across all cells were calculated, and an iterative process was utilized to revise the parameters to minimize the residuals and allow the estimates to be revised accordingly. […]

Question: Which “Activation n (Hill coefficient, best fit)” value does the source give for CC(=O)OCC[N+](C)(C)C [ACh, acetylcholine] here?
Answer: Its value is 1.45.

Question: What about the “Activation Rmax (best fit)” value (relative to ACh maximum, ACh constrained to 1) of the same compound?
Answer: Its value is 1.0.
